Data on 22 targets can be found in the supplement of paper PMC11732987, “Enantioselective OTUD7B fragment discovery through chemoproteomics screening and high-throughput optimisation” (Communications Chemistry, 2025).

The chains behind the UniProt entries cited, without tags or fusion partners. Where a name states a change or a piece, a line headed by the entry shows the natural chain unless it says otherwise. Residues count along the entry.
UniProt Q96KR1: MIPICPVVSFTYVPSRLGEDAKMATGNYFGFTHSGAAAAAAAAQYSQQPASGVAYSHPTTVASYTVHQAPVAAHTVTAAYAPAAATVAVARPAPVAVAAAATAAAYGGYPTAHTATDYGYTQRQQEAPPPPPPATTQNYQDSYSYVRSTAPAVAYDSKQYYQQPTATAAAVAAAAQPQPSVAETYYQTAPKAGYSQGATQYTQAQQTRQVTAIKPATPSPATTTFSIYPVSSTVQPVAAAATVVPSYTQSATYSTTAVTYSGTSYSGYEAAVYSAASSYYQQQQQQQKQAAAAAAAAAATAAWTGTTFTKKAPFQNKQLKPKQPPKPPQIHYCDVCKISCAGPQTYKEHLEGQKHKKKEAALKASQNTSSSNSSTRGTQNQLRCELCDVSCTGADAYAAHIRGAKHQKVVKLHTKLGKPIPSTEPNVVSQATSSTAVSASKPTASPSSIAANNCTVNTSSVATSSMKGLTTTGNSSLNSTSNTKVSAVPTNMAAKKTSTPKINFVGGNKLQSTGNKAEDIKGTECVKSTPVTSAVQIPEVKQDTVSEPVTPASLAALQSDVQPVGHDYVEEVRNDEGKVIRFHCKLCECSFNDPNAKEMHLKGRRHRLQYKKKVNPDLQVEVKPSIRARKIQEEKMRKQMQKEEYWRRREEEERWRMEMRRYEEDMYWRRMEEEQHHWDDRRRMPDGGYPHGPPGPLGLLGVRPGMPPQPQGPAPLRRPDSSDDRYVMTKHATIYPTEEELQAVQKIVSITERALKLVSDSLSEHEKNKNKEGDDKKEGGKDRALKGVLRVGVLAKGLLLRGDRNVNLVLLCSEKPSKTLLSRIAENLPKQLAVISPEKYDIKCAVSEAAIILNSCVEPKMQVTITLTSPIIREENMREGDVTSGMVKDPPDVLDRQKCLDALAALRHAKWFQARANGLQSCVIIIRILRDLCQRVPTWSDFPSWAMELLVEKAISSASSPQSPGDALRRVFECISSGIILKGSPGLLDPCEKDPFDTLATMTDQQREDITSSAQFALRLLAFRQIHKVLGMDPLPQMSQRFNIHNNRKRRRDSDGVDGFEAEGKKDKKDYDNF
UniProt O43264, 668-687: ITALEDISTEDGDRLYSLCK
UniProt Q8IYH5, 642-662: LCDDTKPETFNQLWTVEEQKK
UniProt Q8TCF1: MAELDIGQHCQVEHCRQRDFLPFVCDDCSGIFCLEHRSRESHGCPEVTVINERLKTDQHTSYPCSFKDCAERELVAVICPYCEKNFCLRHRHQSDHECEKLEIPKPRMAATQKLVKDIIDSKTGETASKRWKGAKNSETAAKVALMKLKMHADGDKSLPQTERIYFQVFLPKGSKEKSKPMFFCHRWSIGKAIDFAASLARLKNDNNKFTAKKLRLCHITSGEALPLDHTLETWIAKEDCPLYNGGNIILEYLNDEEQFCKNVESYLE
UniProt Q96K58, 40-65: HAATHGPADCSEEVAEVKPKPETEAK
UniProt Q8N1G0: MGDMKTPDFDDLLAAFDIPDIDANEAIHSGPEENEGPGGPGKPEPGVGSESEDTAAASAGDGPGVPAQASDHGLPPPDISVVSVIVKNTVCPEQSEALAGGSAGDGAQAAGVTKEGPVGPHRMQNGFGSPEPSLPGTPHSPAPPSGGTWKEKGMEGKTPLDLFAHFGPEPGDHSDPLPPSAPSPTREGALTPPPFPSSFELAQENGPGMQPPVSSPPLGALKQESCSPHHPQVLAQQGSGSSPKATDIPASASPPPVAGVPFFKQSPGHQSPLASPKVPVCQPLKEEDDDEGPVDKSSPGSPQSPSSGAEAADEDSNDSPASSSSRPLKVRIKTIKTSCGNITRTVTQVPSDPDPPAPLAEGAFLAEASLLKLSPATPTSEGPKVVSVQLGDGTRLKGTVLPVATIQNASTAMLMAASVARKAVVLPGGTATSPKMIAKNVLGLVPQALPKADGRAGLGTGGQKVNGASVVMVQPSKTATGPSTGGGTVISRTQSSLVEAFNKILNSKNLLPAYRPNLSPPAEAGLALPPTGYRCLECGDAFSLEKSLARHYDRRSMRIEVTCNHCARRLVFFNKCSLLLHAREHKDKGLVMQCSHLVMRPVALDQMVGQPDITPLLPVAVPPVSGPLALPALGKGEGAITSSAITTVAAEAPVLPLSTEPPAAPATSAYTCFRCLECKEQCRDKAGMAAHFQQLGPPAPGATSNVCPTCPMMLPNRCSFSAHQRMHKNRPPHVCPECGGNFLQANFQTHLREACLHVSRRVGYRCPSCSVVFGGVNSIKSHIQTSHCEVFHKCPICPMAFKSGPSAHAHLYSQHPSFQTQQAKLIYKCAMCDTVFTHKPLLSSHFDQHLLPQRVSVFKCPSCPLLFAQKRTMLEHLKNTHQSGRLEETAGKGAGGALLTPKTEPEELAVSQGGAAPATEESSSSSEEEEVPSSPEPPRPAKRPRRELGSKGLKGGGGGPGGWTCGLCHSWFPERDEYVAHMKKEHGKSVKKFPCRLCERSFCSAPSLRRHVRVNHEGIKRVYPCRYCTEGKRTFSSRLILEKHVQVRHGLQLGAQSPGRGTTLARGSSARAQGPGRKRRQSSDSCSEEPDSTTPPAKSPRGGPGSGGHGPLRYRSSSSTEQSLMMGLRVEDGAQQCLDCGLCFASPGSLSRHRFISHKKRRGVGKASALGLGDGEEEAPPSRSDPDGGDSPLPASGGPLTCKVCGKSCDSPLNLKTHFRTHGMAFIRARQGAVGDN
UniProt Q92618: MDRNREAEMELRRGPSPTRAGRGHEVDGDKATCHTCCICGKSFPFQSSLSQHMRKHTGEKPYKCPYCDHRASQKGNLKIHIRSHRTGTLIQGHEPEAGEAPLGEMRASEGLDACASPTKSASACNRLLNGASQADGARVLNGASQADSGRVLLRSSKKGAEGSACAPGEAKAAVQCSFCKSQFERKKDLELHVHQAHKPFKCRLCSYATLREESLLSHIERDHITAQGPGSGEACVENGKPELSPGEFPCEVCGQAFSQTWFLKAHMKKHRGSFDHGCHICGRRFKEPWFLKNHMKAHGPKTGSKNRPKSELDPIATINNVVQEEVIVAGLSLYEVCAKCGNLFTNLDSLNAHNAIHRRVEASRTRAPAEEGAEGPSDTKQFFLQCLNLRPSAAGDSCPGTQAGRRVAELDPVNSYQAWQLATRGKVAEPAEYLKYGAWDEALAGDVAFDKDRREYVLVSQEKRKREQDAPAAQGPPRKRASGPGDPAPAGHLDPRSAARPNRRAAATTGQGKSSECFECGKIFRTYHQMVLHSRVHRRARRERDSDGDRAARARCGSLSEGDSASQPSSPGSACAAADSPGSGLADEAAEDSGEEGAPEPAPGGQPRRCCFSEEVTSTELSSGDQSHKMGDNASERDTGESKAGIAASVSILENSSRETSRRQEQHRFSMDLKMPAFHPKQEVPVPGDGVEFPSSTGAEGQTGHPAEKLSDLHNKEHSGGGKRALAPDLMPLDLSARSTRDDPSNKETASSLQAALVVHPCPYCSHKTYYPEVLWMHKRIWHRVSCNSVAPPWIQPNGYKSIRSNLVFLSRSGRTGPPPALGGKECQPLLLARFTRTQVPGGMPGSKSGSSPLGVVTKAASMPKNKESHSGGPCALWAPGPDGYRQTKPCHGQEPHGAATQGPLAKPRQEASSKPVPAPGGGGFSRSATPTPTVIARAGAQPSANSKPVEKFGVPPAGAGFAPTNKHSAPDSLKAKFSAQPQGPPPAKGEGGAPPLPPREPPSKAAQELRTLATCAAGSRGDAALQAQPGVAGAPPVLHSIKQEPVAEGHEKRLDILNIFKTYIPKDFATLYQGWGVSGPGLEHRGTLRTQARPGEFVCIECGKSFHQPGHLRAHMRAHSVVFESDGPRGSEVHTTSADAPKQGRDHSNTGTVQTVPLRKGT
UniProt Q92610: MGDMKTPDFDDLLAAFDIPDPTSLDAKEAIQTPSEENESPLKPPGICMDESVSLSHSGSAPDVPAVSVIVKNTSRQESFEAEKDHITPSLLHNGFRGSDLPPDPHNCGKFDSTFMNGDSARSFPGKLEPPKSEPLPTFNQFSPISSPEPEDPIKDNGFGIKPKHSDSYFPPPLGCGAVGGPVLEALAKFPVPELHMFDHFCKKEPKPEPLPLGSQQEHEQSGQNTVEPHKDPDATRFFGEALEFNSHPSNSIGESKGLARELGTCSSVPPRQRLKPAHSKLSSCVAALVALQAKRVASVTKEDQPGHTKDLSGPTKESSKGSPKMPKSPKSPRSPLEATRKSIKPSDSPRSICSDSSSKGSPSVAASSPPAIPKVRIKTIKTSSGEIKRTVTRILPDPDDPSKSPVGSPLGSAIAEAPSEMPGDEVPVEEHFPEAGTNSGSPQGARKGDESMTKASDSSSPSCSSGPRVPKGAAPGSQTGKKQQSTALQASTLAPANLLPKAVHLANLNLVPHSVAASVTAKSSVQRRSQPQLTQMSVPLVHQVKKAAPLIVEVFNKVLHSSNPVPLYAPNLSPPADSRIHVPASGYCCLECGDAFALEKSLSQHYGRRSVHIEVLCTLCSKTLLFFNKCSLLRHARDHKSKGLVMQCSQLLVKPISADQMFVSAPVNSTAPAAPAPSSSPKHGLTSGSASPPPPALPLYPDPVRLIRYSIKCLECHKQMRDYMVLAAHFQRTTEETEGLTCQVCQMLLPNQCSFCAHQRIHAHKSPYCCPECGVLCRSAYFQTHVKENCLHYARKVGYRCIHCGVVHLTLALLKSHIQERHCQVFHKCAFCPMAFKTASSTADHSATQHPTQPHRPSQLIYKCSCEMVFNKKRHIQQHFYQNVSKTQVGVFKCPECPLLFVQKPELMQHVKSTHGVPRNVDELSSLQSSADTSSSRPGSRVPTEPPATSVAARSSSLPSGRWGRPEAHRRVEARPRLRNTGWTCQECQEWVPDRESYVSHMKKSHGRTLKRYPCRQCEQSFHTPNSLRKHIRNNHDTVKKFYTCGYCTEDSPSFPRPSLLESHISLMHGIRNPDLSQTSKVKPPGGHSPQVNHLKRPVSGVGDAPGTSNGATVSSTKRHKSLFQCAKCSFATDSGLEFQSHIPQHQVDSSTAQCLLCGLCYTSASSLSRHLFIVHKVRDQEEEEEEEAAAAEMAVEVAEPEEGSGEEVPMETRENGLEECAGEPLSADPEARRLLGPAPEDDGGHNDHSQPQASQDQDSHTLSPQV
UniProt O15014: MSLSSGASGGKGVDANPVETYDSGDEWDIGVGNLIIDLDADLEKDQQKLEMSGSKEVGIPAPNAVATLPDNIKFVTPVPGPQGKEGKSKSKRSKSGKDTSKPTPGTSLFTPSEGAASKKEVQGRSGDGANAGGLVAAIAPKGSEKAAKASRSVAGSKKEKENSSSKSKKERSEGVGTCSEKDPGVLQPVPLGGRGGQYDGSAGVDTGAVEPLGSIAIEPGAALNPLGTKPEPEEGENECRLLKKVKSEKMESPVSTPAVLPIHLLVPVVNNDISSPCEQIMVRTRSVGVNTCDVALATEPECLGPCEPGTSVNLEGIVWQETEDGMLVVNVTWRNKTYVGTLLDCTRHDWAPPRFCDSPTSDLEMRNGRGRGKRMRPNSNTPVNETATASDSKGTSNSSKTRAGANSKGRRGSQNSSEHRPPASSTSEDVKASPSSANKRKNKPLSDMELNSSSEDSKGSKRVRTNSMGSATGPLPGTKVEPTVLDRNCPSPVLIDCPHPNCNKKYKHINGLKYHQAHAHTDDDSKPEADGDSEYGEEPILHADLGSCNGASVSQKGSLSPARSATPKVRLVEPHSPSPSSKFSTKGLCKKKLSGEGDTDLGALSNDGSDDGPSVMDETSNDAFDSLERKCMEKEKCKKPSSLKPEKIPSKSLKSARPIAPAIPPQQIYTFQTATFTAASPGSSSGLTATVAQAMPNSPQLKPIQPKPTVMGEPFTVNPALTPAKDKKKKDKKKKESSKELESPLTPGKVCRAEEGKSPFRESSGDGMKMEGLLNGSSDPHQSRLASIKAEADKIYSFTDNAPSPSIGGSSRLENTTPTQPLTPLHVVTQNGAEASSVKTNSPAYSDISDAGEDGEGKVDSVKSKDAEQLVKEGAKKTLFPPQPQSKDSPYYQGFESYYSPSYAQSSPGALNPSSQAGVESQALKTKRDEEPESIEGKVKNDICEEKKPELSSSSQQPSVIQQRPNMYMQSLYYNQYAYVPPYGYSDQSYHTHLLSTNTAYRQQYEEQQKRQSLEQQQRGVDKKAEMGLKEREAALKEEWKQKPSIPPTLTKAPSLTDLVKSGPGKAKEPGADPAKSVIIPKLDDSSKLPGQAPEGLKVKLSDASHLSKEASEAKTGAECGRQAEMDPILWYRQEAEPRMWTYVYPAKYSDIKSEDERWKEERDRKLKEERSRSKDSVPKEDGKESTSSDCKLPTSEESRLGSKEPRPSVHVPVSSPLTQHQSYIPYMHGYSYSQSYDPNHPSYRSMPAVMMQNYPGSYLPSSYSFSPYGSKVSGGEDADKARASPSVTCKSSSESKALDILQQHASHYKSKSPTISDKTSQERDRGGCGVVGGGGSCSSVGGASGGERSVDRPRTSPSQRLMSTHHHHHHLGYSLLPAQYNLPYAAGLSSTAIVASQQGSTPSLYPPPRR

The list shows a part of the results. The data scatter; read single values as rough.

Compound in this experiment: ClCC(=O)N[C@@H]1CCCc2ccccc12
The experiment can be described thus: log2 mean competition ratio of IA-DTB cysteine labelling (DMSO/compound) (log2 ratio); higher = stronger cysteine engagement by compound. The note with it: treatment time: 4 h, cell line lysate: HEK293T. The method, then:
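IA-DTB competitive cysteine chemoproteomics in HEK293T RIPA lysate. Lysates were treated with compound 29 or 30 at 50 or 200 µM for 4 h, then IA-DTB (500 µM, 1 h), trypsin-digested, NeutrAvidin-enriched and analysed by diaPASEF. Competition ratio = intensity DMSO / intensity compound (n=4 treated, n=64 DMSO); binding: mean log2 CR ≥ 1 and p ≤ 0.05 plus QC filters. Target is the cysteine site.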

ZC3HC1 C208 (UniProt Q86WB0): the “log2 mean competition ratio” value (50 µM) amounted to 0.185 and the “log2 mean competition ratio” value (200 µM) is -0.0421.

With ZSCAN21 C241 (UniProt Q9Y5A6), the “log2 mean competition ratio” value was 0.242 (50 µM) and -0.0432 (200 µM).

For ZNF185 C615, the “log2 mean competition ratio” value by setting is: (50 µM) 0.519; (200 µM) -0.298.

As for ZZEF1 C728 (UniProt O43149), the “log2 mean competition ratio” value was 0.122 (50 µM) and 0.545 (200 µM).

With ZC3HAV1 C96 (UniProt Q7Z2W4), the “log2 mean competition ratio” value by setting is: (50 µM) -0.105; (200 µM) -0.0403.

Take ZDHHC20 C131 (UniProt Q5W0Z9): the “log2 mean competition ratio” value runs as follows: (50 µM) 0.0966; (200 µM) -0.185.

As for ZFR C525 (UniProt Q96KR1), the “log2 mean competition ratio” value runs as follows: (50 µM) -0.0815; (200 µM) -0.13.

For ZNF638 C652 (UniProt Q14966), the “log2 mean competition ratio” value runs as follows: (50 µM) -0.0871; (200 µM) 0.366.

For ZW10 C686 (UniProt O43264), the “log2 mean competition ratio” value was determined as 0.041 (50 µM) and 0.079 (200 µM).

Consider ZWILCH C7 (UniProt Q9H900), for which the “log2 mean competition ratio” value (50 µM) came to 0.134 and the “log2 mean competition ratio” value (200 µM) was -0.121.

On to ZZZ3 C643 (UniProt Q8IYH5), for which the “log2 mean competition ratio” value runs as follows: (50 µM) -0.0512; (200 µM) -0.122.

On to ZNF655 C189 (UniProt Q8N720), for which the “log2 mean competition ratio” value by setting is: (50 µM) -0.183; (200 µM) 0.272.

Regarding ZZEF1 C2312 (UniProt O43149), the “log2 mean competition ratio” value is -0.0776 (50 µM) and 0.0785 (200 µM).

Regarding ZNF106 C544 (UniProt Q9H2Y7), the “log2 mean competition ratio” value was -0.142 (50 µM) and 0.158 (200 µM).

Regarding ZFAND1 C44 (UniProt Q8TCF1), the “log2 mean competition ratio” value was -0.199 (50 µM) and 0.217 (200 µM).

As for ZNF668 C49 (UniProt Q96K58), the “log2 mean competition ratio” value was -0.0319 (50 µM) and -0.135 (200 µM).

For ZC3HC1 C156 (UniProt Q86WB0), the “log2 mean competition ratio” value is 0.0282 (50 µM) and -0.235 (200 µM).

Take ZSCAN25 C144 (UniProt Q6NSZ9): the “log2 mean competition ratio” value (50 µM) is -0.323.

As for ZNF687 C1003 (UniProt Q8N1G0), the “log2 mean competition ratio” value was determined as 0.397 (50 µM) and 0.198 (200 µM).

Regarding ZNF516 C165 (UniProt Q92618), the “log2 mean competition ratio” value by setting is: (50 µM) 0.215; (200 µM) 0.151.

For the target ZNF592 C353 (UniProt Q92610), the “log2 mean competition ratio” value was -0.0591 (50 µM) and -0.0193 (200 µM).

On to ZNF609 C345 (UniProt O15014), for which the “log2 mean competition ratio” value is -0.000783 (50 µM) and 0.0799 (200 µM).
